Test results taken from PubChem BioAssay AID540276 (National Center for Advancing Translational Sciences (NCATS), 2011).
“And” between values parts separate entries of the source, which are not always exact repeats. Equal entries are not always repeated. About 5,400 (1.8%) of roughly 300,000 compounds were called active. Inconclusive results, whose numbers are uncertain, are shown with a selection of clear calls. Calls come from the whole dose curve; tested in HEK293 cells. Potencies beside an inconclusive call are fits to weak or partial responses and may not hold up.

Assay: qHTS for inhibitors of binding or entry into cells for Marburg Virus
Conditions: Marburg virus pseudotyped entry inhibition, cell reporter; activity change, negative = inhibition: at 37.8 µM (top of the series) unless noted
% is set by controls: 0 for no effect and ±100 for the full control effect; potency is the fitted concentration of half-maximal effect.

SMILES | Potency | activity change, negative = inhibition
COc1ccc(C(=O)/C(C#N)=N/Nc2ccccc2[N+](=O)[O-])cc1 | inconclusive: 35.5 µM [inhibitor, single point] | 
CC(CN1CCN(Cc2ccccc2)CC1)OC(=O)c1ccco1 (stereo unspecified) | inconclusive: 1.78 µM [inhibitor, partial curve, poor fit] | 
O=C(CS(=O)(=O)c1ccccc1)Nc1ccc(Br)cn1 |  | inactive: -5.41%
Cc1ccc(CN2C(=O)C(O)(c3c[nH]c4ccccc34)c3cc(Cl)ccc32)cc1 (stereo unspecified) | inconclusive: 10 µM [inhibitor, partial curve, poor fit] | 
COc1cccc(-c2nc(CS(=O)(=O)CC(=O)NCc3ccc(C)cc3)c(C)o2)c1 |  | inactive: -16.2% [at 46.1 µM]
COc1ccc2c(c1)c(CC(=O)O)c(C)n2C(=O)c1ccc(Cl)cc1 | inconclusive: 29.1 µM [activator, partial curve, poor fit] and inconclusive: 89.1 nM [inhibitor, full curve] | 
Cc1ccc(NC(=O)C(OC(=O)c2cnc(C)cn2)c2ccccc2)c([N+](=O)[O-])c1 (stereo unspecified) | inconclusive: 5.62 µM [activator, single point] | 
Cc1ccc(-c2nnc(SCc3ccccc3C#N)o2)cc1 | inconclusive: 2.82 µM [activator, partial curve, poor fit] | 
O=C(NC1CCCCCC1)C1CCCN(c2ncccn2)C1 (stereo unspecified) |  | inactive: -2.77% [at 46.1 µM]
CCOC(=O)c1cccc(NC(=O)c2ccc3c(Cl)c4c(nc3c2)CCC4)c1 | inconclusive: 1.58 µM [activator, partial curve, poor fit] | 
O=C(NCCCN1CCN(c2ccc(F)cc2)CC1)Nc1ccc(Cl)cc1 | inconclusive: 7.08 µM [inhibitor, partial curve, poor fit] | 
NC(=O)c1ccc(N2CCN(S(=O)(=O)c3ccccc3)CC2)c([N+](=O)[O-])c1 |  | inactive: -26.5% [at 46.1 µM]
CN(C)CCCNc1nc(N)c([N+](=O)[O-])c(NCCO)n1 |  | inactive: -3.54% [at 46.1 µM]
CCCCCn1c(=N)c(S(=O)(=O)c2ccc(Cl)cc2)cc2c(=O)n3cccc(C)c3nc21 |  | inactive: 6.96% [at 46.1 µM]
CCn1c(SCC(=O)Nc2nc3ccc(C)cc3s2)nc2c(c1=O)SC(C)C2 (stereo unspecified) | inconclusive: 3.55 µM [inhibitor, partial curve, poor fit] | 
CC(NC(=O)C12CC3CC(C1)CC(n1cncn1)(C3)C2)C12CC3CC(CC(C3)C1)C2 (stereo unspecified) |  | inactive: -25.4%
N#Cc1c(NC(=O)c2cnccn2)sc2c1CCCC2 | inconclusive: 8.2 µM [inhibitor, single point] | 
CCc1nnc(NC(=O)c2cc(S(=O)(=O)N3CCN(c4ccccc4)CC3)ccc2Cl)s1 |  | inactive: -0.474%
CCCc1nc([N+](=O)[O-])c(S(=O)(=O)c2ccccc2)n1CC(C)C | active: 11.6 µM | 
COc1ccc(C2c3c(-c4c(C)cc(C)cc4O)n[nH]c3C(=O)N2Cc2ccco2)cc1 (stereo unspecified) | inconclusive: 11.2 µM [inhibitor, partial curve, poor fit] | 
COCCN(CCOC)C(=O)c1ccc(CSc2nc3ccccc3s2)cc1 | inconclusive: 10 µM [inhibitor, single point] | 
O=C(CSc1nnc2c(n1)[nH]c1ccccc12)NCc1ccccc1F | inconclusive: 3.16 µM [inhibitor, single point] | 
COc1ccc(Cl)cc1NC(=O)C1Cc2cc(S(=O)(=O)N3CCCC3)ccc2N1C(C)=O (stereo unspecified) | inconclusive: 20 µM [inhibitor, partial curve, poor fit] | 
Cc1ccccc1Nc1nc(N)nc(CSCC(=O)Nc2cccc(Br)c2)n1 | inconclusive: 25.1 µM [inhibitor, single point] | 

SMILES | Potency | activity change, negative = inhibition
S=C(NCc1ccccn1)NN=Cc1ccccn1 | inconclusive: 35.5 µM [inhibitor, single point] | 
Cc1ccc(NC(=O)CNC(=O)c2ccc(C(C)(C)C)cc2)cc1S(=O)(=O)N1CCOCC1 | inconclusive: 17.8 µM [inhibitor, single point] | 
C(=N\n1cnnc1SCc1ccccc1)/c1ccco1 |  | inactive: 11%
CSc1nnc(NC(=O)Cc2coc3cc(C)ccc23)s1 |  | inconclusive: 10% [activator] [at 46.1 µM]
Cc1ccccc1OCC(=O)Nc1ccc2c(c1)Cc1ccccc1-2 |  | inactive: 4.38%
COc1cccc2c(=O)cc(C)n(CC(=O)Nc3cccc(C)c3)c12 |  | inactive: -38.9%
O=C(Nc1ccc(C(=O)N2CCCCC2)cc1)c1ccccc1Br |  | inactive: 3.32% [at 46.1 µM]
CCCC(=O)Nc1ccc(C(=O)N/N=C/c2ccc[nH]2)cc1 | active: 7.08 µM | 
O=S(=O)(c1ccccc1)N1CCN(C2CCCCCCC2)CC1 | inconclusive: 7.08 µM [inhibitor, partial curve, poor fit] | 
CCOC(=O)c1c(-c2ccccc2)oc2ccc(NS(=O)(=O)c3ccc(C)cc3C)cc12 | inconclusive: 35.5 µM [inhibitor, single point] | 
CC1CC(C)CN(C(=O)CSC2=Nc3ccccc3C3=NC(Cc4c[nH]c5ccccc45)C(=O)N23)C1 (stereo unspecified) | inconclusive: 23.1 µM [inhibitor, partial curve, poor fit] | 
O=C(c1ccc([N+](=O)[O-])cc1)N1CCOC12CCN(c1ncc(C(F)(F)F)cc1Cl)CC2 |  | inactive: -3.45%
CSCCC1NC2(C(=O)Nc3c2ccc(Cl)c3C)[C@@H]2C(=O)N(C3CCCC3)C(=O)[C@H]12 (stereo partly specified) | inconclusive: 29.1 µM [inhibitor, single point] | 
COc1cccc(-c2nnc(SCC(=O)NCc3ccc4c(c3)OCO4)n2Cc2ccco2)c1 |  | inactive: 32.6%
CCN(c1ccccc1)S(=O)(=O)c1ccc(C(=O)NCC(c2ccccc2OC)N2CCCC2)cc1 (stereo unspecified) | inconclusive: 22.4 µM [inhibitor, single point] | 
CCc1c(C)sc(NC(=O)C2CC2c2ccccc2)c1C(N)=O (stereo unspecified) | active: 3.26 µM | 
Cc1oc(/N=C/c2ccccc2)c(C#N)c1C |  | inactive: 0.991%
O=S1(=O)N=C(N2CCCC2)c2ccccc21 | inconclusive: 0.316 µM [inhibitor, partial curve, poor fit] | 
Cc1nc2ccc(NC(=O)c3cccc(S(=O)(=O)N(C)c4ccccc4)c3)cc2s1 | active: 17.8 µM | 
N#Cc1cn(CC(=O)NCCc2c[nH]c3ccccc23)c2ccccc12 | inconclusive: 18.3 µM [inhibitor, partial curve, poor fit] | 
O=c1[nH]c2ccc(F)cc2[nH]c1=O | inconclusive: 3.16 µM [inhibitor, single point] | 
CC(=O)c1cc(CN2CCC(C(=O)Nc3cccc(-c4cscn4)c3)CC2)cs1 | inconclusive: 11.2 µM [inhibitor, partial curve, poor fit] | 
CCOC(=O)c1sc(NC(=O)CN2CCN(c3ccc(OC)cc3)CC2)nc1C |  | inactive: 5.93% [at 46.1 µM]
CCN(CC)CCCN=C1NC(c2ccccc2)C(C(=O)OC)=C(C)N1CC (stereo unspecified) | inconclusive: 0.0841 µM [inhibitor, partial curve, poor fit] | 

13 of the compounds above, with tabs:
SMILES	Potency	activity change, negative = inhibition
O=C(CS(=O)(=O)c1ccccc1)Nc1ccc(Br)cn1		inactive: -5.41%
Cc1ccc(CN2C(=O)C(O)(c3c[nH]c4ccccc34)c3cc(Cl)ccc32)cc1 (stereo unspecified)	inconclusive: 10 µM [inhibitor, partial curve, poor fit]	
COc1cccc(-c2nc(CS(=O)(=O)CC(=O)NCc3ccc(C)cc3)c(C)o2)c1		inactive: -16.2% [at 46.1 µM]
COc1ccc2c(c1)c(CC(=O)O)c(C)n2C(=O)c1ccc(Cl)cc1	inconclusive: 29.1 µM [activator, partial curve, poor fit] and inconclusive: 89.1 nM [inhibitor, full curve]	
Cc1ccc(-c2nnc(SCc3ccccc3C#N)o2)cc1	inconclusive: 2.82 µM [activator, partial curve, poor fit]	
O=C(NCCCN1CCN(c2ccc(F)cc2)CC1)Nc1ccc(Cl)cc1	inconclusive: 7.08 µM [inhibitor, partial curve, poor fit]	
CCc1nnc(NC(=O)c2cc(S(=O)(=O)N3CCN(c4ccccc4)CC3)ccc2Cl)s1		inactive: -0.474%
S=C(NCc1ccccn1)NN=Cc1ccccn1	inconclusive: 35.5 µM [inhibitor, single point]	
COc1cccc2c(=O)cc(C)n(CC(=O)Nc3cccc(C)c3)c12		inactive: -38.9%
CCCC(=O)Nc1ccc(C(=O)N/N=C/c2ccc[nH]2)cc1	active: 7.08 µM	
CCN(c1ccccc1)S(=O)(=O)c1ccc(C(=O)NCC(c2ccccc2OC)N2CCCC2)cc1 (stereo unspecified)	inconclusive: 22.4 µM [inhibitor, single point]	
O=S1(=O)N=C(N2CCCC2)c2ccccc21	inconclusive: 0.316 µM [inhibitor, partial curve, poor fit]	
CCN(CC)CCCN=C1NC(c2ccccc2)C(C(=O)OC)=C(C)N1CC (stereo unspecified)	inconclusive: 0.0841 µM [inhibitor, partial curve, poor fit]	

(list continues)

SMILES | Potency | activity change, negative = inhibition
O=C(Nc1ccccc1C(=O)N1CCCC1)c1ncoc1-c1cccc(Cl)c1 | inconclusive: 3.16 µM [inhibitor, single point] | 
Cc1cccc(C)c1NC(=O)NC1(C(=O)NCCN2CCOCC2)CCCCC1 |  | inactive: 18.5%
Cc1nn(CC(=O)NNC(=O)c2ccccc2F)c([N+](=O)[O-])c1Br |  | inactive: 13.1% [at 46.1 µM]
COc1ccccc1NCc1nnc(-c2ccccc2)o1 |  | inactive: -3.99% [at 46.1 µM]
CCOC(=O)C1(Cc2ccccc2C(F)(F)F)CCN(C(C)CCn2cccn2)CC1 (stereo unspecified) | inconclusive: 7.08 µM [inhibitor, full curve, poor fit] | 
COCCNC(=S)N(Cc1cc2cc(C)ccc2n2nnnc12)C1CCCC1 | inconclusive: 6.31 µM [inhibitor, single point] | 
COc1ccc(N2CCN(CCCNC(=O)C(=O)c3c[nH]c4ccccc34)CC2)cc1 | inconclusive: 35.5 µM [inhibitor, single point] | 
O=[N+]([O-])c1ccc(/C=N/Nc2ccnc3cc(Cl)ccc23)o1 | inconclusive: 22.4 µM [inhibitor, single point] | 
CCOC(=O)c1c(-c2ccc(C)cc2)csc1NC(=O)c1nc(SCC)ncc1Cl |  | inactive: 19.7% [at 46.1 µM]
CCN(CC)C(=O)c1ccc(-c2ccccc2)cc1 | inconclusive: 5.62 µM [activator, single point] | 
COc1cc(/C=N/NC(=O)c2ccncc2)ccc1Oc1ccc([N+](=O)[O-])cn1 |  | inactive: -8.73% [at 46.1 µM]
COc1cc(/C=C/C(=O)OCC(=O)Nc2ccc(NC(C)=O)cc2)cc(S(=O)(=O)N2CCc3ccccc32)c1OC | inconclusive: 14.1 µM [inhibitor, single point] | 
Cc1ccc(C(=O)N2CCC(n3nccc3NC(=O)C3CCOC3)CC2)cc1 (stereo unspecified) |  | inactive: 19.8%
COc1ccc(-n2nnc3c(SCC(=O)NCc4ccco4)ncnc32)cc1 | inconclusive: 0.178 µM [activator, full curve, poor fit] | 
CC(C)N(C(=O)CN1C(=O)NC(c2ccccc2)(c2ccccc2)C1=O)C(C)C |  | inactive: 0.516% [at 46.1 µM]
C[C@@H]1CC2=CCCC2[C@]2(O1)C(=O)Nc1cccc(Br)c12 (stereo partly specified) |  | inactive: 1.34% [at 14.2 µM]
CCN1CCN(c2oc(/C=C/c3ccccc3OC)nc2C#N)CC1 |  | inactive: -0.807% [at 46.1 µM]
Cc1n[nH]c(C)c1CCOc1ccc(C(C)C)cc1 | inconclusive: 20.6 µM [inhibitor, single point] | 
O=C(OCC(=O)c1ccco1)c1ccc2ncsc2c1 |  | inactive: -0.578%
CC(=O)N(C)c1ccc(OCC(O)Cn2c3ccc(Cl)cc3c3cc(Cl)ccc32)cc1 (stereo unspecified) | active: 11.2 µM | 
O=C(O)c1ccc(Br)c(S(=O)(=O)N2CCCC2)c1 |  | inactive: -9.47%
CCN(C(=O)/C=C/c1ccccc1)C1CCCCC1 |  | inactive: 17.8%
COc1ccccc1C(=O)NCCC(=O)NCCC12CC3CC(CC(C3)C1)C2 |  | inactive: -21.8%
